Among all 390,000 compounds or so, about 910 (0.23%) were called active. The inconclusive results got no clear call from the source; some entries with a clear call stand among them for comparison. The call rests on the fitted dose curve; in most records, active means well fitted inhibition curve with a large enough effect; inconclusive means small, poorly fitted or top-dose-only effect; inactive means no such curve, though single readings can be large or run the other way. Potencies of inconclusive entries are doubtful fits and often do not repeat.
What follows are compounds tested against Ubiquitin carboxyl-terminal hydrolase 1 (Homo sapiens) (UniProt O94782) (assay: Inhibitors of USP1/UAF1: Primary Screen). Settings: recombinant USP1/UAF1, Ub-Rhodamine cleavage fluorescence; activity change, negative = inhibition: at 57.1 µM (top of the series).
How it was run: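 High-throughput fluorogenic screen: 1nM USP1/UAF1 complex, Ub-Rho substrate 150nM final, 50mM HEPES pH 7.8 with 0.5mM EDTA, 0.1 mg/ml BSA, 1mM TCEP and 0.01% Tween-20.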
Further: nearly all actives have a fitted effect of over 60% in size.
On the % scale 0 is the no-effect control and ±100 the full control effect; potency means the concentration at half of the fitted maximal effect.

The chains behind the UniProt entries cited, without tags or fusion partners. Where a name states a change or a piece, a line headed by the entry shows the natural chain unless it says otherwise.
UniProt O94782: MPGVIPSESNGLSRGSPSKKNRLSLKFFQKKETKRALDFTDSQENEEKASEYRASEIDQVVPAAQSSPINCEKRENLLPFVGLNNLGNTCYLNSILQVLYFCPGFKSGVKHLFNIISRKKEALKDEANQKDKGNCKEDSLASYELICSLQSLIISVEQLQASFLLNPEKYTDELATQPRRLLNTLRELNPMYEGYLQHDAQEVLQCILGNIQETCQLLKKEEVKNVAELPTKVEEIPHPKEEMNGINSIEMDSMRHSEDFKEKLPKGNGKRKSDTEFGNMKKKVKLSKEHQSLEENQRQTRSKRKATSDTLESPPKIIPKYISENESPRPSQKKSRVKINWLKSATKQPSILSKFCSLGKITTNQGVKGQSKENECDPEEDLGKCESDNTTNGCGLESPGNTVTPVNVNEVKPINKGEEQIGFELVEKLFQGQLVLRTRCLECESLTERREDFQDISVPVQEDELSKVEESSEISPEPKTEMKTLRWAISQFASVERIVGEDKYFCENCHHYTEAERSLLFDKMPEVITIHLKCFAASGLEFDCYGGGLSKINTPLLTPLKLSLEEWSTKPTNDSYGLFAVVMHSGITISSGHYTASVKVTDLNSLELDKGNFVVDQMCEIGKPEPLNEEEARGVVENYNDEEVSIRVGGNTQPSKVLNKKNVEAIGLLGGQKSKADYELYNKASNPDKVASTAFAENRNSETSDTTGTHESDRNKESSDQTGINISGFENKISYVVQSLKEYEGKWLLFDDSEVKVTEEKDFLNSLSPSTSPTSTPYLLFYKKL

Structure (SMILES) | Potency | activity change, negative = inhibition
Nc1ccn([C@@H]2O[C@H](CNCc3ccc(-c4cc(C(F)(F)F)ccc4Cl)o3)[C@@H](O)[C@H]2O)c(=O)n1 | inconclusive: 0.316 µM [inhibitor, full curve] | 
CCc1ccc([C@@H]2CC=C(C(=O)O)[C@H](c3ccc(Cl)cc3)N2S(=O)(=O)c2ccc(C)cc2)cc1 | inconclusive: 28.2 µM [inhibitor, partial curve, poor fit] | 
O=C(NCCc1ccccc1)C(c1ccc(F)cc1)N(C(=O)c1csnn1)C1CC1 (centres undefined) | inconclusive: 4.47 µM [inhibitor, partial curve] | 
COc1ccc2nc(C3CCCCC3)c3c(c2c1)CCC3 | inconclusive: 0.1 µM [inhibitor, full curve, poor fit] | 
CC(=O)N1c2ccccc2S(=O)(=O)c2ccccc21 | inconclusive: 0.355 µM [inhibitor, full curve, poor fit] | 
Cc1c(C(=O)N2CCCC2)oc2c1-c1[nH]ncc1CC2 |  | inactive: -14.7%
O=C(NC1CCCC1)c1ccc2c(=O)n(Cc3ccccc3)c(SCc3ccc([N+](=O)[O-])cc3)nc2c1 |  | inconclusive: -14.5% [inhibitor]
Cc1ccc(NC(=O)CSc2nnc(C3CC3)n2N)cc1S(=O)(=O)N1CCOCC1 | inconclusive: 2.24 µM [inhibitor, partial curve, poor fit] | 
O=C(Nc1ccccc1)c1ccc(=O)n(Cc2cccc(Cl)c2)c1 | inconclusive: 10 µM [inhibitor, single point] | 
COC(=O)C1=C(C(=O)OC)[C@]2([C@@H]3CC=CCN[C@@H](Cc4ccccc4)C(=O)N3Cc3ccccc3)C=C[C@H]1O2 | inconclusive: 50.1 µM [inhibitor, partial curve, poor fit] | 
CSc1oc(-c2ccco2)nc1S(=O)(=O)c1ccc(F)cc1 | inconclusive: 50.1 µM [inhibitor, partial curve, poor fit] | 
COc1ccc2c(c1)Cc1sc(NC(=O)c3ccccc3C)nc1-2 | inconclusive: 31.6 µM [inhibitor, partial curve] | 
CCOc1ccc(-c2nnc(SCC(=O)NC3CCCCC3)nc2-c2ccc(OCC)cc2)cc1 | inconclusive: 1.26 µM [inhibitor, partial curve, poor fit] | 
CCc1ccc(OCC(=O)Nc2cccc3c2CCCC3)cc1 | inconclusive: 17.8 µM [inhibitor, partial curve] | 
CSc1cccc(NC(=S)N(CCCN2CCCC2)Cc2cccn2Cc2ccc(Cl)cc2)c1 |  | inactive: -20.9%
Cc1cccc(NC(=S)N(C)C)c1C | inconclusive: 5.62 µM [inhibitor, partial curve, poor fit] | 
O=C(O)c1[nH]c2ccccc2c1C(c1c(F)cccc1Cl)c1c(C(=O)O)[nH]c2ccccc12 |  | inactive: -22.4%
CC(=O)c1ccc(NC(=O)Nc2ccc3snnc3c2)cc1 | inconclusive: 31.6 µM [inhibitor, partial curve] | 
Cc1ccc(Nc2c(O)nc[nH]c2=O)cc1C | inconclusive: 0.282 µM [inhibitor, full curve, poor fit] | 
Cn1c2ccc(F)cc2c2nc3ccccc3nc21 | inconclusive: 50.1 µM [inhibitor, partial curve, poor fit] | 

Exported as comma-separated lines: part of the list above
Structure (SMILES),Potency,"activity change, negative = inhibition"
COc1ccc2nc(C3CCCCC3)c3c(c2c1)CCC3,"inconclusive: 0.1 µM [inhibitor, full curve, poor fit]",
CC(=O)N1c2ccccc2S(=O)(=O)c2ccccc21,"inconclusive: 0.355 µM [inhibitor, full curve, poor fit]",

The listing continues:

Structure (SMILES) | Potency | activity change, negative = inhibition
CC(C)c1csc(CN2CCC(C(=O)Nc3cccc(-c4ccco4)c3)CC2)n1 | inconclusive: 8.91 µM [inhibitor, full curve, poor fit] | 
Cc1nnc(N2C(=O)C(O)=C(C(=O)c3ccco3)C2c2ccc(C(C)(C)C)cc2)s1 (centres undefined) |  | inactive: 8.09%
COc1ccc(/C=C/C(=O)Nc2ccc(C)cc2)cc1 |  | inactive: -14.7%
Cc1ccc(S(=O)(=O)N2Cc3ccccc3CC2C(=O)N(C)C)cc1 (centres undefined) | inconclusive: 0.224 µM [inhibitor, full curve, poor fit] | 
CCOc1ccc2[nH]c(=O)c(C(c3nnnn3CC3CCCO3)N3CCc4ccccc4C3)cc2c1 (centres undefined) | inconclusive: 39.8 µM [inhibitor, partial curve, poor fit] | 
COC(=O)c1nnn(-c2cccc(C)c2)c1N | inconclusive: 355 µM [inhibitor, partial curve, poor fit] | 
CC(/C=C1\SC(=S)N(NC(=O)c2ccncc2)C1=O)=C\c1ccccc1 |  | inactive: 1.32%
O=C(N/N=C/c1ccc(OC(=O)c2cccs2)cc1)c1ccc(F)cc1 |  | inactive: -6.75%
O=C1N(c2ccccc2)C[C@@H]2C[C@@H](c3cccs3)N3CCC[C@@]123 | inconclusive: 44.7 µM [inhibitor, partial curve, poor fit] | 
O=C(NCCc1ccc(Cl)cc1)c1nnc(Cc2ccc(F)cc2)o1 |  | inactive: -21.6%
CN(C)S(=O)(=O)c1ccc(C(=O)NCCSc2c(-c3ccc(Br)cc3)[nH]c3ccccc23)cc1 | inconclusive: 0.282 µM [inhibitor, full curve, poor fit] | 
CCCCNC(=O)CC1Nc2cc(C)c(C)cc2NC1=O (centres undefined) | inconclusive: 39.8 µM [inhibitor, partial curve] | 
CNC(=O)c1c(NC(=O)c2cc(=O)c3cc(C)c(C)cc3o2)sc2c1CCCC2 | inconclusive: 1.26 µM [inhibitor, partial curve] | 
O=C(CSc1ccc2nnc(-c3cccnc3)n2n1)NCc1ccc2c(c1)OCO2 | inconclusive: 39.8 µM [inhibitor, partial curve, poor fit] | 
Cc1cccc(C)c1Nc1c(-c2ccc(N3CCOCC3)cc2)nc2ncccn12 | inconclusive: 1.26 µM [inhibitor, full curve, poor fit] | 
O=C(Cn1c(=O)cnc2ccccc21)Nc1cc(Cl)ccc1N1CCOCC1 | inconclusive: 5.01 µM [inhibitor, full curve, poor fit] | 
CC(=O)Nc1ccc(Nc2nc(-c3sc(C)nc3C)cs2)cc1 |  | inactive: -0.923%
CC(=O)O[C@]1(C(C)=O)CC[C@H]2[C@@H]3C=C(Cl)C4=CC(=O)[C@@H]5C[C@@H]5[C@]4(C)[C@H]3CC[C@@]21C | inconclusive: 31.6 µM [inhibitor, single point] | 
CSc1ccc(CNC(=O)Cn2c(-c3cccs3)cc3cc(F)ccc32)cc1 | inconclusive: 2.82 µM [inhibitor, partial curve] | 
